Measurements: the supplement of paper PMC10849652
The list shows a part of the results.

Protein sequences, listed by entry. Tags and fused reporters are not part of them. Lines headed by an entry give the natural chain unless they say otherwise; changes in a name come on top.
UniProt Q9NUN5: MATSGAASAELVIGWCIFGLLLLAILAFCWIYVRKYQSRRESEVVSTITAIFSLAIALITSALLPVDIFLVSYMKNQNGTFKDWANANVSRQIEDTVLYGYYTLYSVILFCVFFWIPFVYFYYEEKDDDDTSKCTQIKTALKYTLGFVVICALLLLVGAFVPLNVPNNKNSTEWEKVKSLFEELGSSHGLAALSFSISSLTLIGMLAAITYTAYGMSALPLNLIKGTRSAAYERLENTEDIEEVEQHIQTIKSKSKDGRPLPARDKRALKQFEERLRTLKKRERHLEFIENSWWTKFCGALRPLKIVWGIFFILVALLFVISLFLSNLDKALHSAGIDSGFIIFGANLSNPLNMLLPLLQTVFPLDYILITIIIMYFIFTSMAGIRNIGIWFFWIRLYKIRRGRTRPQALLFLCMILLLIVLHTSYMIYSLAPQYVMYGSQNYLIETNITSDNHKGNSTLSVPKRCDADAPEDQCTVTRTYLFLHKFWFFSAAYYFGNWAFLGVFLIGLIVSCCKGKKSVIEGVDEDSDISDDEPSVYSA
UniProt O60294: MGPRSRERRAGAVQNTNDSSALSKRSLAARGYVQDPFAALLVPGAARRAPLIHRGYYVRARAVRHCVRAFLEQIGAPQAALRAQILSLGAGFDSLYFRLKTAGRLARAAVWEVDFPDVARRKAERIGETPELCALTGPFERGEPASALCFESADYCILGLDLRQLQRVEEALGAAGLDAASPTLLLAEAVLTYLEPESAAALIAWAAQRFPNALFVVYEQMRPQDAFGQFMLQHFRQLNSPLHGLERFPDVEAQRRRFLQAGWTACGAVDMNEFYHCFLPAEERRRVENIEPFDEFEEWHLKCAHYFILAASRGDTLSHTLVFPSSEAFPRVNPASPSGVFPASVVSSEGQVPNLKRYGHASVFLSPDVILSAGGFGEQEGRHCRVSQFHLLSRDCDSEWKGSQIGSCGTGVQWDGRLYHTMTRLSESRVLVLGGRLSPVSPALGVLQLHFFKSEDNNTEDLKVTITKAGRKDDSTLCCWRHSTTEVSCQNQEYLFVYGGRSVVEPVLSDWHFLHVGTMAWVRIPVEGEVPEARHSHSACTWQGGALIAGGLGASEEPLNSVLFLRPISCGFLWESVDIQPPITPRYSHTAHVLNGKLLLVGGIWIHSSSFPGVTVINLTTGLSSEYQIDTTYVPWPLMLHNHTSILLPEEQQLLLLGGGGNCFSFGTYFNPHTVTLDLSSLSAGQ
UniProt Q6P1Q0: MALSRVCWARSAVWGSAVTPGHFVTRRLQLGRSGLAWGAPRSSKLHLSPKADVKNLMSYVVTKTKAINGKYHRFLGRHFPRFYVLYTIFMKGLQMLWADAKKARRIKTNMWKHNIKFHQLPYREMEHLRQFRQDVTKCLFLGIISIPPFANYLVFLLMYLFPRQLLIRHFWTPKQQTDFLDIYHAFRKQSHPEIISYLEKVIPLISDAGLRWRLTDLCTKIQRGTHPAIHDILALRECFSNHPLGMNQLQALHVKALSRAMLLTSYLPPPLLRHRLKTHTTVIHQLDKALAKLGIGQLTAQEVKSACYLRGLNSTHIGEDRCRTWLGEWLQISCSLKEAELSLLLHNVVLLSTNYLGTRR
UniProt Q9Y4W2: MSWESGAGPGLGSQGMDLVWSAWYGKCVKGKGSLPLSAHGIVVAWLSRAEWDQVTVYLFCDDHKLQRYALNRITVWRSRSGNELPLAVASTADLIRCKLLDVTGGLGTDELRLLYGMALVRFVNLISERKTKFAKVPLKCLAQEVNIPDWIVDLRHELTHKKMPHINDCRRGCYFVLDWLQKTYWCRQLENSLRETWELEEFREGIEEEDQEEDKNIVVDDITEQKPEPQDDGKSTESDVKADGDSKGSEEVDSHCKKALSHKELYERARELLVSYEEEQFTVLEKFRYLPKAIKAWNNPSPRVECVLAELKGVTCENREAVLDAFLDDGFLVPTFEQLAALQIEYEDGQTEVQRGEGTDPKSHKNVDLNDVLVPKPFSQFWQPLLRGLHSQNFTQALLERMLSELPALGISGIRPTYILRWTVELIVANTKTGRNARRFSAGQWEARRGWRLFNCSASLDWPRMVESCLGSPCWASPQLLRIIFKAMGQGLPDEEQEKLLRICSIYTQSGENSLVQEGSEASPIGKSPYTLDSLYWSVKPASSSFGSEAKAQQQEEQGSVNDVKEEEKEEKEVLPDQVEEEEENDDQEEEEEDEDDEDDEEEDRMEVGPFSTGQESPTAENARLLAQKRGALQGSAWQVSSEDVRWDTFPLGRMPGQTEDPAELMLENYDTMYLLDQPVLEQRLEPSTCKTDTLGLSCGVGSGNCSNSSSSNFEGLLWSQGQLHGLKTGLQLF
UniProt Q8NG48: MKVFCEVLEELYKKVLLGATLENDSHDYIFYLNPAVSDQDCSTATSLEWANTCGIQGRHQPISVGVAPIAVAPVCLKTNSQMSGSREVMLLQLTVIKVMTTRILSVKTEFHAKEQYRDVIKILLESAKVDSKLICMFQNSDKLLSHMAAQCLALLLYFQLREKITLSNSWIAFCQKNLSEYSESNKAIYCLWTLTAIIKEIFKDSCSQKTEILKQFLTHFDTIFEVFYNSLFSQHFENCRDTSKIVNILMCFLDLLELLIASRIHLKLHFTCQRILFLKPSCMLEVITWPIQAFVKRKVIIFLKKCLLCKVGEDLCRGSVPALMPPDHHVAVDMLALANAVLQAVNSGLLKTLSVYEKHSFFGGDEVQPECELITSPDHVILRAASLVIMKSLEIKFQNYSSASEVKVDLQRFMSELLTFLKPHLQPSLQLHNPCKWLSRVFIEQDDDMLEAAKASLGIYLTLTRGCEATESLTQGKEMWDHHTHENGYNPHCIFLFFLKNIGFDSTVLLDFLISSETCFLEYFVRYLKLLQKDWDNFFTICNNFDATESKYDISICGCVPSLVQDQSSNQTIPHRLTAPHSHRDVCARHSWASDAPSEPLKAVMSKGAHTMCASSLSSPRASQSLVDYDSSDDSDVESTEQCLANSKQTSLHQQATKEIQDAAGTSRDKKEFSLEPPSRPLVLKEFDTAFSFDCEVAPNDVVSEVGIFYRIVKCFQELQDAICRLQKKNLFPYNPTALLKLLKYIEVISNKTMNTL
UniProt O75427: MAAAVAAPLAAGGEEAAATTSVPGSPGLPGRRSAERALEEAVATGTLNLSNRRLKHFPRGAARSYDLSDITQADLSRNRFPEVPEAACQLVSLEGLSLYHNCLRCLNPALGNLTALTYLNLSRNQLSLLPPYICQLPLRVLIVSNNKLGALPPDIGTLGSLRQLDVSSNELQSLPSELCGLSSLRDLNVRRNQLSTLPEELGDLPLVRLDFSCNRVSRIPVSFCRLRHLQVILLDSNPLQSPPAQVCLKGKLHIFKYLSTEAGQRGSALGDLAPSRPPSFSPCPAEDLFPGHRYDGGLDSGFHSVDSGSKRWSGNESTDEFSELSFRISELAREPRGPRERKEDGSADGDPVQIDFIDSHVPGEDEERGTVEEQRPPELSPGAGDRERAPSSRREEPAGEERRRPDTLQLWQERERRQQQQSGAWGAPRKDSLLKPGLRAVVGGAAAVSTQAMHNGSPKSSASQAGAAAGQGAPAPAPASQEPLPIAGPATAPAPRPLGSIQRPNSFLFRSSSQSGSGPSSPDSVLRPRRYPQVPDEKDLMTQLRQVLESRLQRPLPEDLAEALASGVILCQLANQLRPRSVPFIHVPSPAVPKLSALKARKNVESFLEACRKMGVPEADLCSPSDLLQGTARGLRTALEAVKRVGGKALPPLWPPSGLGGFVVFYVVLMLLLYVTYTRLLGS
UniProt Q15345: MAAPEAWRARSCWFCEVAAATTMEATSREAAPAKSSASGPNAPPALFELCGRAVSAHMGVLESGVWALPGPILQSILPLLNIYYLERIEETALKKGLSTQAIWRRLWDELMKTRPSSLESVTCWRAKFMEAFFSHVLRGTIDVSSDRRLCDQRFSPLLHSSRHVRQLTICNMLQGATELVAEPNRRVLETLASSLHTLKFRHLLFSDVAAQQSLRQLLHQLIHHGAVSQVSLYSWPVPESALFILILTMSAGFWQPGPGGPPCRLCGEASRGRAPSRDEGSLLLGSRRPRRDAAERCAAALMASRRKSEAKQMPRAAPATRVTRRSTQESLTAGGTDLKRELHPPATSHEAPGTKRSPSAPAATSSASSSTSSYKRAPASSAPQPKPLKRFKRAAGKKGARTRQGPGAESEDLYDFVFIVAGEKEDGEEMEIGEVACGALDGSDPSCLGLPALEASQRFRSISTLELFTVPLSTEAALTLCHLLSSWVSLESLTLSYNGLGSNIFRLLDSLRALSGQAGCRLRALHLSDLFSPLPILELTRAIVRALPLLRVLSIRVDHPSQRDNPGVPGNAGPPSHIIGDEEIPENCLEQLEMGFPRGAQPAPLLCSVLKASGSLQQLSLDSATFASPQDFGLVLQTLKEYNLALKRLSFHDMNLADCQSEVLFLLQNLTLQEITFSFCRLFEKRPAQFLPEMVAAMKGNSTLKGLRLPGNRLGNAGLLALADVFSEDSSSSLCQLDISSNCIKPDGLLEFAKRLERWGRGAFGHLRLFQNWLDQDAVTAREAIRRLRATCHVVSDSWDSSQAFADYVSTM
UniProt P53667: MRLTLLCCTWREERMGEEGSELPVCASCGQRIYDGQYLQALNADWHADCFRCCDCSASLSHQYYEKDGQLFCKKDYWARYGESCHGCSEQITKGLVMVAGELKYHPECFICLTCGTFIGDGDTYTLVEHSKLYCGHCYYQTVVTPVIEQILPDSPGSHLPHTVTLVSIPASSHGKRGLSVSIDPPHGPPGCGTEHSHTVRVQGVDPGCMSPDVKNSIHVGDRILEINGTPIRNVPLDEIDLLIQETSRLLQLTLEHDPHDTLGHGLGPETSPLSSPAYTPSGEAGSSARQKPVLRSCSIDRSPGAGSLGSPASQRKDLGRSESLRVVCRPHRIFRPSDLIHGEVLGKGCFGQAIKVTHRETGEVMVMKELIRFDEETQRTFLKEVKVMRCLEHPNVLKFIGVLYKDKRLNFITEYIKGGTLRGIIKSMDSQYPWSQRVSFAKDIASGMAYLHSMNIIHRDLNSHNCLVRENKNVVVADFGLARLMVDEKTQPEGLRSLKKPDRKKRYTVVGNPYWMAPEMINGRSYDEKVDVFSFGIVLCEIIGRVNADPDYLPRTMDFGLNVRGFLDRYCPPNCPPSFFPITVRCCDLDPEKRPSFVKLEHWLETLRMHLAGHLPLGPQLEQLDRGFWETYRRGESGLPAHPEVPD
UniProt Q8N1G4: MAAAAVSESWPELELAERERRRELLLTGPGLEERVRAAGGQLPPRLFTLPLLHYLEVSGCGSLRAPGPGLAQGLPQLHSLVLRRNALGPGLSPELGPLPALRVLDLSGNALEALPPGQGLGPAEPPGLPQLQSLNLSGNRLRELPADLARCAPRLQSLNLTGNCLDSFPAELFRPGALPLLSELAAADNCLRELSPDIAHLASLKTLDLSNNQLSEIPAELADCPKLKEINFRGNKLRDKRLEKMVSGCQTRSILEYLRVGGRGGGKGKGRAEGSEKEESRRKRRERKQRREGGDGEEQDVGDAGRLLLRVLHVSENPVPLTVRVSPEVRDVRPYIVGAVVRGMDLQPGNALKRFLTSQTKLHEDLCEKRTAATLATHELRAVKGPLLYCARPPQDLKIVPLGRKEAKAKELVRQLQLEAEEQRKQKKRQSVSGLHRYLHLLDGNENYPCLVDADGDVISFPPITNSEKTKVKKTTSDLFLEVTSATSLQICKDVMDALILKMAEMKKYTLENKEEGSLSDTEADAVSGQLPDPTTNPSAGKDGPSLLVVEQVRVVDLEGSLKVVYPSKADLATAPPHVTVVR
UniProt Q9BU23: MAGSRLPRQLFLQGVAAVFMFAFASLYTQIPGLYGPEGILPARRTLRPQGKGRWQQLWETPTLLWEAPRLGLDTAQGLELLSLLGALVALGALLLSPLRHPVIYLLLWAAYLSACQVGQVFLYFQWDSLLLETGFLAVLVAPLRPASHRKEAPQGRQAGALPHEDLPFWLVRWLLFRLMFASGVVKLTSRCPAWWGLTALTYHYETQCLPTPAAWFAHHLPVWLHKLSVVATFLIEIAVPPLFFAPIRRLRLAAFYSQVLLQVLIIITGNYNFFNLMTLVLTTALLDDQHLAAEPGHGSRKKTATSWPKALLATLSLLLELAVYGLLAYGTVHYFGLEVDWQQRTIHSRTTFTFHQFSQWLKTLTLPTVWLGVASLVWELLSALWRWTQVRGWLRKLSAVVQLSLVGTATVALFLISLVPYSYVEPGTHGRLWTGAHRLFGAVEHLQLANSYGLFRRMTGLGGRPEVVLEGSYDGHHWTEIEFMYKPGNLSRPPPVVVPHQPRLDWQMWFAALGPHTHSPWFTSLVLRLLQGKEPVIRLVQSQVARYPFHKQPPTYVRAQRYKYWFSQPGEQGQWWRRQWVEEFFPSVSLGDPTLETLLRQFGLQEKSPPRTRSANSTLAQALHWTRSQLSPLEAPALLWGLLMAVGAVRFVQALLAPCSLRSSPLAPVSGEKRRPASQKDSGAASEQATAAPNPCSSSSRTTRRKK

Key:
Test in all cases: log2 fold change, soluble protein after heating vs DMSO (PISA); higher = thermal stabilisation; K562 cells, 10 uM, 30 min; active = over 0.2 and 3.5 SD of the protein, either way, in both replicates (recomputed)
[1] = compound: CC1=C(C=C(C=C1)NC(=O)C2=CC(=CC=C2)C(C)(C)C#N)NC3=CC4=C(C=C3)N=CN(C4=O)C
Method in brief: (§1)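 K562 cells at 2×10^6 cells/mL were treated with 10 μM compound for 30 min. Aliquots were heated for 3 min across 48°C-58°C, pooled, and extracted in PBS with 0.5% NP-40 at 4°C; soluble protein was the supernatant after 21,000xg for 90 min. Soluble protein was quantified by TMTpro 16plex LC-MS/MS with channel sums equalised, and reported as log2 fold change in thermal stability against DMSO controls, with values from duplicates.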

[2] = compound: CC1=C(C=C(C=C1)NC(=O)C2=CC(=CC=C2)N(C)C)NC(=O)C3=CC=C(C=C3)O
Method in brief: as §1

[3] = compound: CC1=CC=C(C=C1)SC2=C3C=C(SC3=CN=C2)C(=O)N
Method in brief: as §1

[4] = compound: CC1=NC(=CC=C1)C2=C(N=C(N2)C(C)(C)C)C3=CC4=NC=CN=C4C=C3
Method in brief: as §1

Nexturastat A = compound: CCCCN(Cc1ccc(C(=O)NO)cc1)C(=O)Nc1ccccc1 [Nexturastat A]
Method in brief: as §1

vemurafenib = compound: CCCS(=O)(=O)Nc1ccc(F)c(C(=O)c2c[nH]c3ncc(-c4ccc(Cl)cc4)cc23)c1F [vemurafenib]
Method in brief: as §1

[5] = compound: CCCS(=O)(=O)Nc1ccc(F)c(C(=O)c2c[nH]c3ncc(Cl)cc23)c1F
Method in brief: as §1

[6] = compound: CCCc1cc(C)[nH]c(=O)c1CNC(=O)c1cc(-c2ccnc(N3CCN(C)CC3)c2)cc2c1cnn2C(C)C
Method in brief: as §1

givinostat = compound: CCN(CC)Cc1ccc2cc(COC(=O)Nc3ccc(C(=O)NO)cc3)ccc2c1 [givinostat]
Method in brief: as §1

barasertib = compound: CCN(CCCOc1ccc2c(Nc3cc(CC(=O)Nc4cccc(F)c4)[nH]n3)ncnc2c1)CCOP(=O)(O)O [barasertib]
Method in brief: as §1

Measured: log2 fold change

LAGE3 (UniProt Q14657)
inactive: [1] -0.052 | [2] -0.03 | [3] 0.016 | [4] -0.046 | Nexturastat A -0.021 | vemurafenib 0.033 | [5] -0.026 | [6] -0.017 | givinostat -0.023 | barasertib 0.023

LRRC4B (UniProt Q9NT99)
inactive: [1] 0 | [2] 0 | [3] -0.044 | [4] -0.047 | Nexturastat A -0.005 | vemurafenib -0.119 | [5] 0.075 | givinostat 0.201 | barasertib -0.028

LMBRD1 (UniProt Q9NUN5)
inactive: [1] 0.073 | [2] 0.02 | [3] 0.023 | Nexturastat A -0.034 | vemurafenib -0.101 | [5] -0.057 | [6] -0.077 | givinostat 0.05 | barasertib -0.039

LENG8 (UniProt Q96PV6)
inactive: [1] 0.112 | [2] -0.201 | [4] 0.009 | Nexturastat A -0.139 | vemurafenib 0.146 | [6] 0.066 | givinostat 0.09 | barasertib 0.173

LIN28B (UniProt Q6ZN17)
inactive: [1] -0.024 | [2] 0.016 | [3] -0.046 | [4] -0.065 | Nexturastat A 0.163 | vemurafenib -0.013 | [5] 0.001 | [6] 0.009 | givinostat -0.012 | barasertib -0.017

LCMT2 (UniProt O60294)
inactive: [1] 0.071 | [3] 0.248 | [4] 0.096 | Nexturastat A 0.293 | vemurafenib 0.213 | [5] 0.269 | [6] -0.011 | givinostat 0.005 | barasertib 0.068

LRRC59 (UniProt Q96AG4)
inactive: [1] 0.019 | [2] -0.008 | [3] 0.031 | [4] 0.034 | Nexturastat A -0.025 | vemurafenib -0.012 | [5] -0.033 | [6] -0.01 | givinostat -0.016 | barasertib -0.006

LRBA, A0A494BZW2
inactive: [1] -0.082 | [2] 0.06 | [3] -0.048 | [4] 0.078 | Nexturastat A -0.264 | [5] 0.272 | [6] 0.038 | givinostat 0.264 | barasertib 0.026

LPIN3 isoform 2 (UniProt Q9BQK8)
inactive: [1] -0.152 | [2] 0.005 | [3] -0.04 | Nexturastat A -0.014 | vemurafenib -0.001 | [5] -0.069 | [6] -0.014 | givinostat -0.006 | barasertib -0.054

LAP3 (UniProt P28838)
inactive: [1] 0.007 | [2] 0 | [3] 0.052 | [4] 0.026 | Nexturastat A -0.133 | vemurafenib 0.025 | [5] 0.027 | [6] -0.066 | givinostat 0.07 | barasertib -0.006

LRFN4 (UniProt Q6PJG9)
inactive: [1] -0.008 | [2] -0.016 | [3] 0.023 | [4] 0.003 | Nexturastat A -0.09 | [5] 0.002 | [6] -0.081 | givinostat 0.061 | barasertib 0.087

LETMD1 isoform 7 (UniProt Q6P1Q0)
inactive: [1] 0.063 | [2] -0.017 | [3] 0.045 | [4] 0.014 | Nexturastat A 0.149 | [5] 0.103 | [6] 0.022 | givinostat -0.008 | barasertib -0.006

LAS1L (UniProt Q9Y4W2)
inactive: [1] -0.285 | [2] 0.035 | [3] 0.07 | [4] 0.208 | Nexturastat A 0.323 | vemurafenib -0.012 | [5] 0.128 | barasertib -0.078

LINS1 (UniProt Q8NG48)
inactive: [1] 0.218 | [2] -0.099 | [4] 0.055 | Nexturastat A -0.084 | [6] -0.045 | givinostat -0.086 | barasertib 0.222

LARP1B, A0A3B3ISF0
inactive: [1] -0.133 | [2] 0.025 | [3] 0.038 | [5] -0.187

LACRT (UniProt Q9GZZ8)
inactive: [1] -0.027 | [2] 0.001 | Nexturastat A -0.29 | vemurafenib -0.171 | [6] 0.107 | barasertib 1.02

LRCH4 (UniProt O75427)
inactive: [1] -0.079 | [2] -0.098 | [4] -0.022 | Nexturastat A 0.123

LIMS1 isoform 3 (UniProt P48059)
inactive: [1] -0.033 | [2] -0.005 | [3] 0.02 | [4] 0.037 | Nexturastat A -0.038 | vemurafenib -0.032 | [5] -0.065 | [6] -0.036 | givinostat -0.045 | barasertib -0.002

LRRC41 (UniProt Q15345)
inactive: [1] 0.12 | [3] 0.093 | [5] 0.06 | givinostat 0.16 | barasertib -0.244

L3HYPDH (UniProt Q96EM0)
inactive: [1] 0.015 | [2] -0.042 | [3] 0.001 | [4] -0.014 | Nexturastat A -0.027 | vemurafenib -0.042 | [5] 0 | [6] 0.013 | givinostat 0.061 | barasertib -0.01

LIG3 (UniProt P49916)
inactive: [1] -0.053 | [3] 0.006 | [5] -0.165 | [6] -0.162 | givinostat 0.416

LAMB1 (UniProt P07942)
inactive: [1] -0.019 | [2] 0.006 | [3] 0.013 | [4] 0.007 | Nexturastat A -0.009 | vemurafenib -0.013 | [5] -0.036 | [6] 0.021 | givinostat 0.023 | barasertib 0.003

LIMK1 (UniProt P53667)
inactive: [1] 0.041 | [3] -0.108 | [4] -0.115 | Nexturastat A 0.166 | [5] 0.359 | barasertib 0.025

LRRC47 (UniProt Q8N1G4)
inactive: [1] 0.016 | [2] 0.002 | [3] -0.001 | [4] 0.08 | Nexturastat A -0.066 | vemurafenib 0.042 | [5] 0.022 | [6] 0.013 | givinostat -0.023 | barasertib 0

Pulled one by one from the entries so far (two):
LACRT (UniProt Q9GZZ8)
inactive: [1] -0.027 | [2] 0.001 | Nexturastat A -0.29 | vemurafenib -0.171 | [6] 0.107 | barasertib 1.02

LAGE3 (UniProt Q14657)
inactive: [1] -0.052 | [2] -0.03 | [3] 0.016 | [4] -0.046 | Nexturastat A -0.021 | vemurafenib 0.033 | [5] -0.026 | [6] -0.017 | givinostat -0.023 | barasertib 0.023

Next entries.

LIN9 isoform 2 (UniProt Q5TKA1)
inactive: [1] -0.186 | [2] -0.019 | [4] 0.153 | Nexturastat A 0.036 | vemurafenib 0.118 | barasertib 0.242

LMF2 (UniProt Q9BU23)
inactive: [1] 0.009 | [2] -0.07 | [3] 0.025 | [4] -0.078 | Nexturastat A -0.022 | vemurafenib 0.067 | [5] -0.022 | [6] 0.016 | givinostat 0.033 | barasertib -0.002
